One assay concerns the target SRC2 (human) (UniProt Q15596). Nature of the assay: proximity labelling; BioID, reciprocal: cargo fused to BirA*-FLAG (N- or C-terminal) in stable Flp-In T-REx 293 lines, four biological replicates; cargo interactomes compared pairwise, with BirA* alone and non-engineered cells.
The target of the next assay is IMA6 (human) (UniProt O15131). Nature of the assay: proximity labelling; BioID, large-scale, direct identification of biotinylated peptides: same NTR-BirA* lines; biotinylated peptides eluted from streptavidin beads with 80% ACN, 20% TFA after the on-bead digest, MS.
For another assay, the target named is IPO5 (human) (UniProt O00410). The description is as above.
In another assay the target is IPO4 (human) (UniProt Q8TEX9). The assay is described as above.
The next assay deals with IMA5 (human) (UniProt P52294). The description is as above.
The next assay concerns the target T1, TNPO2 (human) (UniProt O14787).
T1 sequence: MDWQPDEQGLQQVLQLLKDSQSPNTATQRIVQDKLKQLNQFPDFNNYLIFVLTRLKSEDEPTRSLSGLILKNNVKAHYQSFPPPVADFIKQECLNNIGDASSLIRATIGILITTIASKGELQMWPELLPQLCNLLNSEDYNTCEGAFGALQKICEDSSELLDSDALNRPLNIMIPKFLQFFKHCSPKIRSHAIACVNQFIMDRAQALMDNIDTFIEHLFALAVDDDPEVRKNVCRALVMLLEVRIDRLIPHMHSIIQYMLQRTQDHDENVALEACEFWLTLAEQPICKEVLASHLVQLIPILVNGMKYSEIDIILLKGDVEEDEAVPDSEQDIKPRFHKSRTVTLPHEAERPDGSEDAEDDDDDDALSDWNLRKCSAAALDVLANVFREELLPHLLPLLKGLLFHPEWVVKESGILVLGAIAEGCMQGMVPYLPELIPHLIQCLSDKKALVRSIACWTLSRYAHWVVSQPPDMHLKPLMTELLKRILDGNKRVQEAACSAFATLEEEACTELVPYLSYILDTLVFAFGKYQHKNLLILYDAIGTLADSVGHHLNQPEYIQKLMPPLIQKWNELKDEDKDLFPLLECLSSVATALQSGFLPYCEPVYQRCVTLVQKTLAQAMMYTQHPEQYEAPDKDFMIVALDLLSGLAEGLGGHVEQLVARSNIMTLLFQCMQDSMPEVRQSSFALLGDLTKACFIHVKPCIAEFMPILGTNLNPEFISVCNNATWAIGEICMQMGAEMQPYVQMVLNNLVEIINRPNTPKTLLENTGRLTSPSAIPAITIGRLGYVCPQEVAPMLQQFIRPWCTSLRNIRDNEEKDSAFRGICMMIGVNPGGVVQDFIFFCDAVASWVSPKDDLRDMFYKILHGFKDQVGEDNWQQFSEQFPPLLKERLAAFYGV
The description is as above.

By UniProt entry, the sequences of proteins in these tests, tags left out.
UniProt Q15596: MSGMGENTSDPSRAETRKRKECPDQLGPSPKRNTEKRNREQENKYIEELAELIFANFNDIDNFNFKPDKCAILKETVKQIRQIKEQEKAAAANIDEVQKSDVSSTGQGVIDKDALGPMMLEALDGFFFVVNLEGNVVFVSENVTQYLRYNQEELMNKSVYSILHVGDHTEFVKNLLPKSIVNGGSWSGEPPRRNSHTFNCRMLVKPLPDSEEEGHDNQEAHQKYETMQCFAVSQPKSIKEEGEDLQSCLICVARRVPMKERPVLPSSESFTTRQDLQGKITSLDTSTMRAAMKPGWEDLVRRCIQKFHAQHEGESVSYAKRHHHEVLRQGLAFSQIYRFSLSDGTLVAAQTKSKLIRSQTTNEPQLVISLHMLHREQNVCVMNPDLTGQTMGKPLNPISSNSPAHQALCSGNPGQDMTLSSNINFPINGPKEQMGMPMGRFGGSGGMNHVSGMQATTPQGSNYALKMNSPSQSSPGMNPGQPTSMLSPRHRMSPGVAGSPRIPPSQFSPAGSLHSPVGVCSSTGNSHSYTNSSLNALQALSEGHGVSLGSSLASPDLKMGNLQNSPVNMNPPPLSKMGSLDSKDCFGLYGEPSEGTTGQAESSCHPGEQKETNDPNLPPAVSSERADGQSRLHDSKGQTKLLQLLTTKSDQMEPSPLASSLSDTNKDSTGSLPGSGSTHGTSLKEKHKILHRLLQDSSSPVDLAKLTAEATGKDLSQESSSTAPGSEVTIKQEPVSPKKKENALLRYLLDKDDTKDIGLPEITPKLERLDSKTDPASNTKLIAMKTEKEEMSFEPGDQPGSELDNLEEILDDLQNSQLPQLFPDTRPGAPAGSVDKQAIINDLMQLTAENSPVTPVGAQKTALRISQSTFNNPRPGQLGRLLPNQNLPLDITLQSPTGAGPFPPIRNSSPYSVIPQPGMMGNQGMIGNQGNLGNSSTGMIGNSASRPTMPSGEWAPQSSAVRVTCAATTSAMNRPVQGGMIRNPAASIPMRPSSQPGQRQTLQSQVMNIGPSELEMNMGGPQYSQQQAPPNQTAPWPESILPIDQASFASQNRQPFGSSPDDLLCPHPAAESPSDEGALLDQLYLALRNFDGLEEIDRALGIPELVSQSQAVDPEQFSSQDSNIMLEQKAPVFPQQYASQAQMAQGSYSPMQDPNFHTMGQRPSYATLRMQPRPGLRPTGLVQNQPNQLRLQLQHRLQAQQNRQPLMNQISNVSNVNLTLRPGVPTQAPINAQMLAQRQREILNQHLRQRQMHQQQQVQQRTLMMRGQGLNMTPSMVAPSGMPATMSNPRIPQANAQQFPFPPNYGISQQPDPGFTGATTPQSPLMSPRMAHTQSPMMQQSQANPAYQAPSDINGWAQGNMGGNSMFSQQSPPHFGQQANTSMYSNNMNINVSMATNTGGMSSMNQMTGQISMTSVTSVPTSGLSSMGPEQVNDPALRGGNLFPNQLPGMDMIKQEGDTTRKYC
UniProt O15131: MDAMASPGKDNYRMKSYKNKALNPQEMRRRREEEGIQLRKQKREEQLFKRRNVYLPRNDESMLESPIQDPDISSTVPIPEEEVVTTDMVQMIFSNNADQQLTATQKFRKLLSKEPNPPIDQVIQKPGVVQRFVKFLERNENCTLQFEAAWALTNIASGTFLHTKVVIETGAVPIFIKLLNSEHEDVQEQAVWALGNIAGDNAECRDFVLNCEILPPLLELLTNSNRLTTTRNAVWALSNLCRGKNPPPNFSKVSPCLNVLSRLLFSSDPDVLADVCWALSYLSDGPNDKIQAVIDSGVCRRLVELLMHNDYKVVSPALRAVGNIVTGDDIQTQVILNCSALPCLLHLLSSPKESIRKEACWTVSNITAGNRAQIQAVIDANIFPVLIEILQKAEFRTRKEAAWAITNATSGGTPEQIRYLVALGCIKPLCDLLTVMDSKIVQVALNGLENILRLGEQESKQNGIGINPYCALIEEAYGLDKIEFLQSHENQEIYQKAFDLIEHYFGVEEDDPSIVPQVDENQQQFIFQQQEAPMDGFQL
UniProt O00410: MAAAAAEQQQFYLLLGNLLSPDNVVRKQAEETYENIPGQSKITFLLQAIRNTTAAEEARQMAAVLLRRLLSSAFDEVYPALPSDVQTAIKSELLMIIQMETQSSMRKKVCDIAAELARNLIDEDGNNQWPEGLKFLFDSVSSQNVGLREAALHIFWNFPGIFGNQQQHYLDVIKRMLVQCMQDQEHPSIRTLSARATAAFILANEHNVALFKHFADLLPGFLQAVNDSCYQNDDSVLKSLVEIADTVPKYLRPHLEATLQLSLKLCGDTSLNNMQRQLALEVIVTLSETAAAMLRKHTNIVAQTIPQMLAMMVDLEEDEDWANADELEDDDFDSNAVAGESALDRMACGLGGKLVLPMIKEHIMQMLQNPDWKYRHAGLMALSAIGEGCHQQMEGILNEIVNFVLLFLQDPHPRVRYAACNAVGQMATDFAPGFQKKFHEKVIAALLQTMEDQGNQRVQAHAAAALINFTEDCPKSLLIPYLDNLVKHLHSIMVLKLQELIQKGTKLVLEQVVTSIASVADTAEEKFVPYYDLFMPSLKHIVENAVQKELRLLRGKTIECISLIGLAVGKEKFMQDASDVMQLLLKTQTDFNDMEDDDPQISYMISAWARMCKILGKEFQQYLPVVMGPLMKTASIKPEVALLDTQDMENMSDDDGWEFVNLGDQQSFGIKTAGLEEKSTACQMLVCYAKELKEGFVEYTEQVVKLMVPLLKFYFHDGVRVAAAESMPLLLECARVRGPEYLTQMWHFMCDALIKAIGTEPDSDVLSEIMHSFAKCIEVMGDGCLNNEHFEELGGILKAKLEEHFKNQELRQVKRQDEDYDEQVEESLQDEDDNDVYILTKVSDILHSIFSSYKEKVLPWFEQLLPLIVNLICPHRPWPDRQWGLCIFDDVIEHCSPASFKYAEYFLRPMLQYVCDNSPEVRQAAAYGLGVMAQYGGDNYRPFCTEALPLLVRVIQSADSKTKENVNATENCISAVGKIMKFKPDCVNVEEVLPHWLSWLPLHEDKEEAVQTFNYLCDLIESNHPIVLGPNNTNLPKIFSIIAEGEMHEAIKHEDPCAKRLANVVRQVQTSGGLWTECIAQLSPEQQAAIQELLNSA
UniProt Q8TEX9: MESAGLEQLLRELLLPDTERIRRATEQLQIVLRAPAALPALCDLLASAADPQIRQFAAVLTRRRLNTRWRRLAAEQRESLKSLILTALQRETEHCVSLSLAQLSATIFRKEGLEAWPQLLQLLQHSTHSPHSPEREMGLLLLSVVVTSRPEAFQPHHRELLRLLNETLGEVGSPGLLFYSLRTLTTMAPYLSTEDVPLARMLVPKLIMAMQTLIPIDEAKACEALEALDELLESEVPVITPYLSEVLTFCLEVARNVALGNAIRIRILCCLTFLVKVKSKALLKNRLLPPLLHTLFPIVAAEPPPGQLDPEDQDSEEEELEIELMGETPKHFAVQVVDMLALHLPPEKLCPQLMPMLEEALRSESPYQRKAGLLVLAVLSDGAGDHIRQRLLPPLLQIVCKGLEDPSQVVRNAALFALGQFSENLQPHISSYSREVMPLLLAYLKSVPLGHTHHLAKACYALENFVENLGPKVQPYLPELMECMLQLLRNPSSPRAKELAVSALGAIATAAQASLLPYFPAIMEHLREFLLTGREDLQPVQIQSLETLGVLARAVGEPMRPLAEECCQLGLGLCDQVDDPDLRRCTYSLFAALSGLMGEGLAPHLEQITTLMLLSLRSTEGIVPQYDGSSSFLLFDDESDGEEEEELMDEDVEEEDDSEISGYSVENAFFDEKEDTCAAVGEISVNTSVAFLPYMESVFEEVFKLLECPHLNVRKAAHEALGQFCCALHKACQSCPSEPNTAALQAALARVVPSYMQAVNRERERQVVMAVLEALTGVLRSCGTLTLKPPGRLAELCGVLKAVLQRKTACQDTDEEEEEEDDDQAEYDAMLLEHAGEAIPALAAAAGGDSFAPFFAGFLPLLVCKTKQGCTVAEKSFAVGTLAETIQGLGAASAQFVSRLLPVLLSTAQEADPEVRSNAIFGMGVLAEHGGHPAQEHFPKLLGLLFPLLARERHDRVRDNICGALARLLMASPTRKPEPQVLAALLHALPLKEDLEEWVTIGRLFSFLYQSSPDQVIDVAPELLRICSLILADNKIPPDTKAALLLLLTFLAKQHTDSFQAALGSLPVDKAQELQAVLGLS
UniProt P52294: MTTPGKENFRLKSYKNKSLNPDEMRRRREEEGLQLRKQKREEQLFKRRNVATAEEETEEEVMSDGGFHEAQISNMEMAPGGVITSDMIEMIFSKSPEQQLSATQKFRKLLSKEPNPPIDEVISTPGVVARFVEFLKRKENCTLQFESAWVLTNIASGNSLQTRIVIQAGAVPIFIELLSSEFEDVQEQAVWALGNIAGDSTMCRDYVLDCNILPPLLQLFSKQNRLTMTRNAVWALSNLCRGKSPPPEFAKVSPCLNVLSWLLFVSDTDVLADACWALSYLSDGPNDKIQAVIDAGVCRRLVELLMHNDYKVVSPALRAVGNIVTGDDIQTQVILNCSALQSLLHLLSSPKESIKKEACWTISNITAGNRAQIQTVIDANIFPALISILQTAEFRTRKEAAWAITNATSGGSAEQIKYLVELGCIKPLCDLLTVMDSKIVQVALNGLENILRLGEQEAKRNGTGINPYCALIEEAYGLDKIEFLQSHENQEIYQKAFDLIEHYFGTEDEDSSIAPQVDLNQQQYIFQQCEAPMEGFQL
UniProt O00505: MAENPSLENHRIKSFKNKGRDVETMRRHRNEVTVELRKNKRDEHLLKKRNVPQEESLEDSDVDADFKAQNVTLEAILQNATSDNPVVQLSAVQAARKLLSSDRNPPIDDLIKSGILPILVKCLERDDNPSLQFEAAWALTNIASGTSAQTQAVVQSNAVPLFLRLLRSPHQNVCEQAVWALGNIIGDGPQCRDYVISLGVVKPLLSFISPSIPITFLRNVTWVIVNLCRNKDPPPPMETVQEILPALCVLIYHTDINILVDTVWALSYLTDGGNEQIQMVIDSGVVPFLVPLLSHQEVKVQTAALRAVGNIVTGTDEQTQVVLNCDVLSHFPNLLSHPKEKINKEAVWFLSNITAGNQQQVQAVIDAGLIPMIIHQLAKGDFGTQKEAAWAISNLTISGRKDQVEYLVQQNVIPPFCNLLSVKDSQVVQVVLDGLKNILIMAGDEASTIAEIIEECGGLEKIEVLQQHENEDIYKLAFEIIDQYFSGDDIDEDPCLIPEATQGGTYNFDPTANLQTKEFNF
UniProt O15371: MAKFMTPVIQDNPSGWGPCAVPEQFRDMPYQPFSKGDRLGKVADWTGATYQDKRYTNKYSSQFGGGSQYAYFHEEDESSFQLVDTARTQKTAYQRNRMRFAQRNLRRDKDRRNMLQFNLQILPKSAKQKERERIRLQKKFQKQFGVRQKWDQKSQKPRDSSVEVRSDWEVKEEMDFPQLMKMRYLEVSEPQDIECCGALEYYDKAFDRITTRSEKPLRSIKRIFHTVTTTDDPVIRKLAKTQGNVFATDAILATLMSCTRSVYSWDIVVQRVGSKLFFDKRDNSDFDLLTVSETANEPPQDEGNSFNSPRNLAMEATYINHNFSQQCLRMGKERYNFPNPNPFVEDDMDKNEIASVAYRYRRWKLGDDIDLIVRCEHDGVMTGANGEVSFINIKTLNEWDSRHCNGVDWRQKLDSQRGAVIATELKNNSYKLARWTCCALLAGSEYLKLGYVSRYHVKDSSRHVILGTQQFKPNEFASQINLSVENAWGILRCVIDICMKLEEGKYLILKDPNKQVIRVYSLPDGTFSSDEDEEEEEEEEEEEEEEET
UniProt O75821: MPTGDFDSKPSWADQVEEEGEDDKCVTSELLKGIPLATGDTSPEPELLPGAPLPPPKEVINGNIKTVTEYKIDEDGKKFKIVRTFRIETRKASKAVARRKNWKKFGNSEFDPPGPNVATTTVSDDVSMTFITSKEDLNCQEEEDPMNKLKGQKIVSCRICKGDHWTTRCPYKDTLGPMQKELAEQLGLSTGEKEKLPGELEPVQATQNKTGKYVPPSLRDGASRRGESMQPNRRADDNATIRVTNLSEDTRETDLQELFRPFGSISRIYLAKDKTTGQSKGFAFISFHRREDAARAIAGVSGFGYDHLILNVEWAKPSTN
UniProt O75822: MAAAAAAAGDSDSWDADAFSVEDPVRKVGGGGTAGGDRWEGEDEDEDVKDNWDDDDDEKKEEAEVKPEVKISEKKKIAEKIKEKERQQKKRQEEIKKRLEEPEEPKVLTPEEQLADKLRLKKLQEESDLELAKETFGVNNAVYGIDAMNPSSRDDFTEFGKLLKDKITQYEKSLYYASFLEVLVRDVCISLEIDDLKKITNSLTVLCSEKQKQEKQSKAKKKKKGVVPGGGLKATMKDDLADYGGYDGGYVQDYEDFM

Results are given in words; binding and its absence hold for the method and conditions named. Binding seen in cells or lysates may run through a third protein. A yes stands for co-enrichment or nearness to the bait. Other partners may have been found.

Regarding IMA5 (from UniProt P52294 1-538), the binding entry with SRC2 (human) is given as “binds”.
TNPO1 (from UniProt Q92973 1-898): in the assay with SRC2 (human), the binding result is on record as “binds”.
IMA4 (from UniProt O00505 1-521): the binding result in the assay with SRC2 (human) is reported as “binds”.
In the case of ICE1 (from UniProt Q9Y2F5 1-2266), the binding entry in the assay with IMA6 (human) was “binds”.
Turning to “eukaryotic translation initiation factor 3 (subunit D, EIF3D) (from UniProt O15371 1-548)”, the binding entry with IPO5 (human) and with IPO4 (human) was “binds” each time.
For the molecule “Eukaryotic translation initiation factor 3 Subunit G (from UniProt O75821 1-320)”, the binding entry with IPO5 (human) and with IPO4 (human) was “binds” in each case.
Consider eIF3E (from UniProt P60228 1-445), for which the binding result in the assay with IPO5 (human) and with IPO4 (human) was “binds” throughout.
With “Eukaryotic translation initiation factor 3 Subunit J (from UniProt O75822 1-258)”, the binding result in the assay with IPO5 (human) and with IPO4 (human) was “binds” each time.

B1: DKC1 (protein, UniProt O60832 1-514)
chain: MADAEVIILPKKHKKKKERKSLPEEDVAEIQHAEEFLIKPESKVAKLDTSQWPLLLKNFDKLNVRTTHYTPLACGSNPLKREIGDYIRTGFINLDKPSNPSSHEVVAWIRRILRVEKTGHSGTLDPKVTGCLIVCIERATRLVKSQQSAGKEYVGIVRLHNAIEGGTQLSRALETLTGALFQRPPLIAAVKRQLRVRTIYESKMIEYDPERRLGIFWVSCEAGTYIRTLCVHLGLLLGVGGQMQELRRVRSGVMSEKDHMVTMHDVLDAQWLYDNHKDESYLRRVVYPLEKLLTSHKRLVMKDSAVNAICYGAKIMLPGVLRYEDGIEVNQEIVVITTKGEAICMAIALMTTAVISTCDHGIVAKIKRVIMERDTYPRKWGLGPKASQKKLMIKQGLLDKHGKPTDSTPATWKQEYVDYSESAKKEVVAEVVKAPQVVAEAAKTAKRKRESESESDETPPAAPQLIKKEKKKSKKDKKAKAGLESGAEPGDGDSDTTKKKKKKKKAKEVELVSE
As for B1, the binding entry in the assay with IMA6 (human) and with IMA5 (human) was “binds” in each case.

B2: TNPO2 (protein, UniProt O14787 1-897)
chain: T1 sequence
As to B2, the binding entry with SRC2 (human) is on record as “binds”.

B3: FUBP2 (protein, UniProt Q92945 1-711)
chain: MSDYSTGGPPPGPPPPAGGGGGAGGAGGGPPPGPPGAGDRGGGGPGGGGPGGGSAGGPSQPPGGGGPGIRKDAFADAVQRARQIAAKIGGDAATTVNNSTPDFGFGGQKRQLEDGDQPESKKLASQGDSISSQLGPIHPPPRTSMTEEYRVPDGMVGLIIGRGGEQINKIQQDSGCKVQISPDSGGLPERSVSLTGAPESVQKAKMMLDDIVSRGRGGPPGQFHDNANGGQNGTVQEIMIPAGKAGLVIGKGGETIKQLQERAGVKMILIQDGSQNTNVDKPLRIIGDPYKVQQACEMVMDILRERDQGGFGDRNEYGSRIGGGIDVPVPRHSVGVVIGRSGEMIKKIQNDAGVRIQFKQDDGTGPEKIAHIMGPPDRCEHAARIINDLLQSLRSGPPGPPGGPGMPPGGRGRGRGQGNWGPPGGEMTFSIPTHKCGLVIGRGGENVKAINQQTGAFVEISRQLPPNGDPNFKLFIIRGSPQQIDHAKQLIEEKIEGPLCPVGPGPGGPGPAGPMGPFNPGPFNQGPPGAPPHAGGPPPHQYPPQGWGNTYPQWQPPAPHDPSKAAAAAADPNAAWAAYYSHYYQQPPGPVPGPAPAPAAPPAQGEPPQPPPTGQSDYTKAWEEYYKKIGQQPQQPGAPPQQDYTKAWEEYYKKQAQVATGGGPGAPPGSQPDYSAAWAEYYRQQAAYYGQTPGPGGPQPPPTQQGQQQAQ
Regarding B3, the binding result in the assay with TNPO2 (human) is recorded as “binds”.

B4: CRTC3 (protein, UniProt Q6UUV7 1-619)
chain: MAASPGSGSANPRKFSEKIALHTQRQAEETRAFEQLMTDLTLSRVQFQKLQQLRLTQYHGGSLPNVSQLRSSASEFQPSFHQADNVRGTRHHGLVERPSRNRFHPLHRRSGDKPGRQFDGSAFGANYSSQPLDESWPRQQPPWKDEKHPGFRLTSALNRTNSDSALHTSALSTKPQDPYGGGGQSAWPAPYMGFCDGENNGHGEVASFPGPLKEENLLNVPKPLPKQLWETKEIQSLSGRPRSCDVGGGNAFPHNGQNLGLSPFLGTLNTGGSLPDLTNLHYSTPLPASLDTTDHHFGSMSVGNSVNNIPAAMTHLGIRSSSGLQSSRSNPSIQATLNKTVLSSSLNNHPQTSVPNASALHPSLRLFSLSNPSLSTTNLSGPSRRRQPPVSPLTLSPGPEAHQGFSRQLSSTSPLAPYPTSQMVSSDRSQLSFLPTEAQAQVSPPPPYPAPQELTQPLLQQPRAPEAPAQQPQAASSLPQSDFQLLPAQGSSLTNFFPDVGFDQQSMRPGPAFPQQVPLVQQGSRELQDSFHLRPSPYSNCGSLPNTILPEDSSTSLFKDLNSALAGLPEVSLNVDTPFPLEEELQIEPLSLDGLNMLSDSSMGLLDPSVEETFRADRL
With B4, the binding result in the assay with TNPO2 (human) is reported as “binds”.

For the origin of these results see publication PMC5740495.
